Values quoted from earlier work, collected in article PMC11213733, “Computational approaches identify a transcriptomic fingerprint of drug-induced structural cardiotoxicity” (Cell Biology and Toxicology, 2024).

Settings: compound annotation; ref FDA label; cited from earlier work

CN(C)CCN(Cc1cccs1)c1ccccn1 [Methapyrilene]
Functional cardiotoxin?: Y
